Source: patent US6306907A, “Antipsychotic” (Taiyo Fishery Co., Ltd., priority 1992, dated 2001)
At least one compound was matched to its structure with a doubt left.

How the values were obtained:
protein kinase C (PKC) = assay: Activation of protein kinase C at a cellular level; type: biochemical; settings: similar to arachidonic acid
NMDA receptors = assay: Electrophysiological patch clamp test of the NMDA-induced current in hippocampal CA1 neurons; type: cell-based, rat; settings: 30 μM test substance, after 5 μM PCP and 30 μM NMDA (FIG. 1A)
Description: Under the circumstances, the effects of docosahexaenoic acid on NMDA receptors of PCP were investigated.
The investigation was conducted by an electrophysiological procedure. More specifically, the brain of a 2-week-old rat was delivered and slices were prepared. Then, neurons were taken from the hippocampal CA1 region and used as samples. An electrophysiological test was conducted by a patch clamp method under fixed potential conditions.

[1] = test system: negative symptoms of schizophrenia; assay: One-month oral administration to subjects, compared with placebo; type: in vivo; settings: human, oral 300 mg three times a day, eight treated subjects
Description: Sixteen subjects aged from 35 to 60 were treated with either the antipsychotic of the present invention or a placebo. Eleven out of these sixteen subjects had been treated with chlorpromazine and haloperidol in the past. Eight subjects were treated with the antipsychotic of the present invention and the other eight were treated with the placebo.
Docosahexaenoic acid or placebo was orally administered to the subjects three times a day, each in a dose of 300 mg.

[2] = test system: tonic convulsion induced by maximum electroshock; assay: Maximum electroshock convulsions (behavioral study); type: in vivo; settings: earlier behavioral studies of the inventors

CC/C=C\C/C=C\C/C=C\C/C=C\C/C=C\C/C=C\CCC(=O)O [docosahexaenoic acid]
activation of protein kinase C (protein kinase C (PKC)): directly activates
recovery of NMDA-induced current after blockage with PCP (NMDA receptors): recovered to the same level as that prior to the blockage with PCP
subjects showing improvements in negative symptoms of schizophrenia [1]: six out of the eight
duration of tonic convulsion induced by maximum electroshock convulsions [2]: effective in reducing the duration
